Laboratory results as given in US7141434B2, “Methods of identifying compounds that modulate IL-4 receptor-mediated IgE synthesis utilizing an adenosine kinase” (Rigel Pharmaceuticals, Inc., priority 2002, dated 2006).
Some results were stated once for a whole list of compounds, not compound by compound.

Test system: IL-4 induced germline ε transcription (ε promoter reporter in A5T4 cells)
Assay: Re-infection of naive A5T4 reporter cells with BFP-peptide fusion (GFP reporter ratio)
Assay type: cell-based, human
Conditions: based on reporter ratio; % change calculated after subtracting 1.0 from the ratios
Procedure: The ability of peptide AR02E8 wt to inhibit germline ε transcription was confirmed in naive cells. Briefly, Phoenix cells were transfected with a retroviral vector encoding a BFP-AR02E8 wt peptide fusion as described in WO 99/58663 and WO 97/27213. Naïve A5T4 cells were infected with the resultant virions and grown for 3 days. The infected cells were stimulated with IL-4 (60 U/mL) and, after 3 days, the cells were assessed by FACS for BFP and GFP. […] The BFP fluorescence data corresponding to the BFP^+ and BFP^− populations are provided in Panel A. The GFP fluorescence data corresponding to the BFP^+ and BFP-populations are presented in Panel B. The reporter ratio for this purpose is determined as the geometric mean of the GFP fluorescence of the BFP^− population divided by the geometric mean of the GFP fluorescence of the BFP^+ population. The reporter ratio for the AR02E8 in this re-infection assay was 2.93. […]
TABLE 2 depicts the amino acid sequences (the dual alanine/glycine mutations are underlined) of the mutants tested and the measured reporter ratios when screening in the A5T4 reporter line.

DTMQVQCGVCAGGYVVAFWDVGP (peptide encoded by synthetic oligomer) [AR02E8RS, dual alanine/glycine mutant of AR02E8 wt]
functional category as compared to the wild type peptide: ROF (a reduction of function (ROF) of mutant shows a >50% decrease in reporter ratio)

DTMQVQCGAGRSGYVVAFWDVGP (peptide encoded by synthetic oligomer) [AR02E8VC, dual alanine/glycine mutant of AR02E8 wt]
functional category as compared to the wild type peptide: ROF (a reduction of function (ROF) of mutant shows a >50% decrease in reporter ratio)
